## Percent effect of library compounds

From ChEMBL document CHEMBL3988442, “University of Dundee, Small-Polar-MMV Screening Library” (2021).

Values are the deposited “Percent Effect”, in %.
The controls that fix the scale are not given in the record; negative values are as filed.
Compounds were drawn at random from those tested, without regard to their results.

Mtb cholesterol medium: 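Growth of Mycobacterium tuberculosis over 4 days (cholesterol / DPPC medium with tyloxapol); the read-out is not stated. Concentration: 500 µM. The record gives no direction; compounds that gave an IC50 in retests scored well above the rest, so higher reads as more growth inhibition. Of about 18,000 compounds tested this way, about 900 (5%) reached 50% or more in at least one test.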
Mtb glucose medium: 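Growth of Mycobacterium tuberculosis over 3 days (7H9 medium with glucose and tyloxapol); the read-out is not stated. Concentration: 500 µM. Higher reads as more growth inhibition (inferred: compounds with an IC50 in retests scored well above the rest). About 18,000 compounds were tested under these conditions; 7.9% (about 1,400) showed 50% or more at least once.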

NCc1cccc(S(=O)(=O)NCc2cccc(F)c2)c1 gave Mtb cholesterol medium: 39.16%; Mtb glucose medium: 55.11%.
N#Cc1ccc(S(=O)(=O)N2CCCC[C@@H]2CO)cc1 gave Mtb cholesterol medium: 19.81%; Mtb glucose medium: 22.71%.
NC1CC(c2cc(NCC[C@H]3CCCN3)ncn2)C1 (stereo partly shown) gave Mtb cholesterol medium: -3.932%; Mtb glucose medium: -3.257%.
Cc1ccc(F)cc1C(=O)NCC1(O)CCNC1 (stereo not shown) gave Mtb cholesterol medium: -4.189%; Mtb glucose medium: -0.19%.
Cc1c(Cl)cccc1C(=O)N(C)[C@H](C)C(N)=O gave Mtb cholesterol medium: 8.419%; Mtb glucose medium: 22.21%.
O=C1c2ccc(F)cc2C(=O)N1Cc1ccccn1 gave Mtb cholesterol medium: 1.238%; Mtb glucose medium: -3.623%.
CC(C)(CO)NC(=O)Nc1cnn(CC(F)(F)F)c1 gave Mtb cholesterol medium: 11.89%; Mtb glucose medium: 23.32%.
CN(CCOCCO)CCOc1ccc(F)cc1 gave Mtb cholesterol medium: 16.18%; Mtb glucose medium: 21.39%.
O=C([C@@H]1CCCO1)N(CCO)Cc1cccc(Cl)c1 gave Mtb cholesterol medium: -1.991%; Mtb glucose medium: 21.01%.
CC(C)c1csc(C(=O)N2CCn3cncc3C2)n1 gave Mtb cholesterol medium: 3.837%; Mtb glucose medium: 24.1%.
COc1ncccc1-c1cccc(C#N)n1 gave Mtb cholesterol medium: -12.06%; Mtb glucose medium: 2.169%.
CCOC(C(=O)NCC(C)(C)C(N)=O)c1ccccc1 (stereo not shown) gave Mtb cholesterol medium: 10.08%; Mtb glucose medium: 3.901%.
COc1ccc(CNCCCN2CCCC2=O)cc1 gave Mtb cholesterol medium: -4.865%; Mtb glucose medium: 0.04715%.
CNc1cc(C(=O)N2CC[C@](C)(O)[C@H](C)C2)ccn1 gave Mtb cholesterol medium: -9.205%; Mtb glucose medium: -7.01%.
CN1C[C@@H](N)C[C@H]1C(=O)NCCCN1CCOCC1 gave Mtb cholesterol medium: 4.009%; Mtb glucose medium: -0.9123%.
CNS(=O)(=O)Cc1ccc(CNC(=O)N2CCC2)cc1 gave Mtb cholesterol medium: -18.2%; Mtb glucose medium: -6.811%.
Cc1ccc(S(=O)(=O)Nc2ccc(C(N)=O)cc2)cc1 gave Mtb cholesterol medium: 13.19%; Mtb glucose medium: 48.22%.
CN(C)c1ccccc1C(=O)N1C[C@H](C2CC2)[C@@H](N)C1 gave Mtb cholesterol medium: 9.588%; Mtb glucose medium: 9.13%.
Cc1ccc(CNC(=O)c2ccncc2)cc1F gave Mtb cholesterol medium: -16.08%; Mtb glucose medium: -9.784%.
CN1CCC(C(=O)N(C)Cc2ccccn2)CC1=O (stereo not shown) gave Mtb cholesterol medium: -4.71%; Mtb glucose medium: -11%.
Cc1noc(C)c1CC(=O)NC(C)(C)C gave Mtb cholesterol medium: 8.858%; Mtb glucose medium: 1.519%.
O=C(Nc1cc(F)cc(F)c1)c1ccncc1 gave Mtb cholesterol medium: 1.783%; Mtb glucose medium: 53.47%.
CC(O)CN(CCCC#N)Cc1ccccc1 (stereo not shown) gave Mtb cholesterol medium: 17.3%; Mtb glucose medium: 21.27%.
NC(=O)N1CCCC(C(=O)NCCc2ccsc2)C1 (stereo not shown) gave Mtb cholesterol medium: -2.493%; Mtb glucose medium: 3.18%.
CS(=O)(=O)N[C@H]1CN(c2ccncc2F)C[C@@H]1C1CC1 gave Mtb cholesterol medium: 6.458%; Mtb glucose medium: 9.144%.
COc1cc(Br)cc(C)c1NC(=O)CNC(C)=O gave Mtb cholesterol medium: 4.069%; Mtb glucose medium: 12%.
OC1CCN(Cc2nc(-c3ccccc3Cl)no2)CC1 gave Mtb cholesterol medium: -2.33%; Mtb glucose medium: -1.999%.
NCCCn1nc2n(c1=O)CCCC2 gave Mtb cholesterol medium: 8.336%; Mtb glucose medium: 8.941%.
CN1CCCCC1C(=O)N1CCC(c2ncc[nH]2)CC1 (stereo not shown) gave Mtb cholesterol medium: 13.2%; Mtb glucose medium: -8.171%.
CS(=O)(=O)C1CCCCNC1 (stereo not shown) gave Mtb cholesterol medium: 19.13%; Mtb glucose medium: 24.09%.
Cc1ccc(CCN2CCN(S(N)(=O)=O)CC2)cc1 gave Mtb cholesterol medium: 4.038%; Mtb glucose medium: 8.263%.
CCN1CCN(C(=O)c2ccc(C)c(C)c2)CC1 gave Mtb cholesterol medium: 50.36%; Mtb glucose medium: 49.47%.
CN(C)CC1(CO)CCCN(Cc2c[nH]cn2)C1 (stereo not shown) gave Mtb cholesterol medium: 4.637%; Mtb glucose medium: -1.685%.

The first 3 entries again:

| Compound | Mtb cholesterol medium | Mtb glucose medium |
|---|---|---|
| `NCc1cccc(S(=O)(=O)NCc2cccc(F)c2)c1` | 39.16% | 55.11% |
| `N#Cc1ccc(S(=O)(=O)N2CCCC[C@@H]2CO)cc1` | 19.81% | 22.71% |
| `NC1CC(c2cc(NCC[C@H]3CCCN3)ncn2)C1` (stereo partly shown) | -3.932% | -3.257% |